According to the supplement of paper PMC4683952:
The list shows a part of the results. Rule as the data show it: active = 2 or more and inactive = the rest. Repeats in this data set agree poorly, so a single value says little.

tested on: Lgr5 (MarsCy1-Lgr5-EGFP, U2OS); assay: cell-surface Lgr5 expression (SCi1 fluorescence, background-subtracted) relative to WT DMSO (fold of DMSO control); higher = more Lgr5 at the plasma membrane; conditions: U2OS MarsCy1-Lgr5-EGFP stable; treatment time: overnight; library: ActiProbe-5K (TimTec); 25 µM

cell-surface Lgr5 expression, inactive:
Nc1ccc(F)c(-n2cnnn2)c1 1.21, Cn1cnc2c(ncn2C2OC(CO)C(O)C2O)c1=N (stereo not drawn) 1.21, C/C(=N\c1ccc(/N=N\c2ccccc2)cc1)N(C)C.Cl 1.17, CC(C)(C)N(CCO)C(=O)C(=O)N(CCO)C(C)(C)C 1.03, c1ccc(-c2noc(CN3CCN(C(c4ccccc4)c4ccccc4)CC3)n2)cc1 1.28, O=c1cc(O)c2sc3nc4c(c(C(F)(F)F)c3c2[nH]1)CCC4 1.23, CN1C(=O)C(Cc2cnc[nH]2)NC1=S (stereo not drawn) 0.989, O=C1NC2(CCCCC2)NC2=C1CCC2 1.31, CCOC(=O)c1c(NC(=O)C(C)(C)C)sc(C(C)=O)c1C 1.33, SC1=NC2(CCCCC2)C2=C(CCCC2)N1 1.01, O=S(=O)(Nc1cccc(F)c1)c1ccc2c(c1)OCCO2 1.21, CC(C)(C)c1cc2c(c(C(C)(C)C)c1)OC(c1ccc([N+](=O)[O-])cc1)N2 (stereo not drawn) 1.28, Cc1cc(NC(=O)c2ccco2)no1 0.939, n1c(c(NC(C2C(C(OC\C(=C(\Cl)Cl)Cl)=O)CC=CC2)=O)cnc1OC)OC (stereo not drawn) 1.18, Cc1nc(C(N)=O)c(N)n1C 0.952, CC1(C)CC(NC(=O)C(=O)NC2CC(C)(C)NC(C)(C)C2)CC(C)(C)N1 1.52, Clc1cccc(Cl)c1-c1noc(CSc2nc3ccccc3o2)n1 1.21, CN1CC2=C(OC(N)=C(C#N)C2c2cccs2)/C(=C/c2cccs2)C1 (stereo not drawn) 1.12, O=S(=O)(Nc1ccc(Cl)cn1)c1cccs1 1.07, COc1ccc(OCCSc2nc3c(N)ncnc3[nH]2)cc1 1.28, O=[N+]([O-])c1ccc2[nH]c3c(c2c1)CCCC3 1.59, CSc1nc2cc(S(=O)(=O)N3CCOCC3)ccc2s1 1.11, c1coc(C2OCC3(CO2)COC(c2ccco2)OC3)c1 (stereo not drawn) 1.22, CC1=C(C)Cn2c(=S)c3ccccc3c(=S)n2C1 1.14, Cc1sc(/C=C(\C#N)C(N)=S)cc1[N+](=O)[O-] 1.68, c1ccc(-c2nnc3sc(C4CCCCC4)nn23)nc1 1.12, FC(F)(F)C1=Nc2ccccc2N(c2ccc(Cl)c(Cl)c2)C1 1.01, OCCn1cc(Br)cn1 1.07, O=c1oc(-c2ccco2)nc2sc3c(c12)CCCC3 1.2, Nc1nn2c(=O)c3[nH]c4ccc(F)cc4c3nc2s1 1.72, O=[N+]([O-])c1cc(Sc2nc3ccccc3o2)cc2nsnc12 1.77, COc1cccc(OC)c1OCc1nc(N)nc(N(C)C)n1 1.3, O=C(O)c1n[nH]cc1[N+](=O)[O-] 1.32, CN1CCN(CC(C)(C)N)CC1 1.12, O=C1c2ccccc2C(=O)N1CCn1c2ccccc2c2nc3ccccc3nc21 1.24, Br.CN1C/C(=C\c2ccco2)C(=O)/C(=C/c2ccco2)C1 0.394, Cc1ccc(C(=O)O)c(=O)[nH]1 1.46, CN1C(=O)/C(=C2\S/C(=N/c3ccccc3)N(c3ccccc3)C2=O)c2ccccc21 1.35, Cc1c(-c2cccs2)n[nH]c1N 1.01, COc1ccc(S(=O)(=O)Oc2ccc(/N=C\c3cc(Br)ccc3OC)cc2)cc1 1.37, CSc1[nH]c(=O)c([N+](=O)[O-])cc1C#N 1.03, N#CCC12CC3CC(CC(C3)C1)C2 1.23, c1ccc(C2=NN3COc4ccccc4C3C2)cc1 (stereo not drawn) 0.707, C#CCOc1cccc(/C=N\N=C(\N)c2nonc2N)c1 1.03, N#Cc1c[nH]c2ccc(F)cc12 0.81, CCn1c2ccccc2c2cc(C3Oc4ccccc4C4CC(c5ccccc5)=NN43)ccc21 (stereo not drawn) 0.867, Sc1nnc(-c2cccs2)n1/N=C/c1ccco1 0.761, Cc1nc2sc3c(c2c(=O)o1)CCC(C)C3 (stereo not drawn) 1.08, Brc1ccc(-c2nc3sc(-c4ccc(Br)cc4)nc3s2)cc1 1.23, Oc1ccc2ccccc2c1C1Nc2cccc3cccc(c23)N1 0.889, Cc1ccc2nc(Cl)cc(C)c2c1 1.26, CC1(C)CC(N2CN(C3CC(C)(C)NC(C)(C)C3)CN(C3CC(C)(C)NC(C)(C)C3)C2)CC(C)(C)N1 1.19, CCOCc1nnc(NC(=O)C(C)(C)C)s1 1.3, CCCCCCCCCCCCn1c(SCCC)nc2c1c(=O)[nH]c(=O)n2C 1.36, Cc1cnnn1-c1nonc1-n1cccc1 0.947, CC1(C)C2CCC1(C)C(NC(=O)CCOCCC(N)=O)C2 (stereo not drawn) 1.65, CC1CC(=O)C2=C(C1)OC(N)=C(C#N)C21CCC2(CC1)OCCO2 (stereo not drawn) 1.03, Cn1cccc1/C=N/NC(=O)c1ccco1 1.2, O=[N+]([O-])c1ccc(/C=N\n2cnnc2)s1 1.96, Cc1cc(O)n2nc(N)nc2n1 1.4, O=C1c2ccccc2C2(O)N(c3ccccc3)C(=S)N(c3ccccc3)C12O (stereo not drawn) 0.874, O=C(O)c1nn(Cn2cccn2)cc1Cl 1.07, CCOC(=O)C/C(C)=N/Nc1nc2sc(C)c(C)c2c(=O)[nH]1 0.881, C(=N/n1cnnc1)/c1ccco1 1.05, Nc1ccc(N2CCOCC2)c(Br)c1 1.18, Cc1nc2sc3c(O)nc(=O)[nH]c3c2c(C)c1C 1.26, CC1(C)OC(=O)N2c3ccccc3NC21C (stereo not drawn) 0.799, CC1CCC(C(C)C)C(OCC(O)CNC(C)(C)C)C1 (stereo not drawn) 1.16
